Source: patent publication US6765085B2, “Receptor kinase, BIN1” (The Salk Institute for Biological Studies, priority 1997, dated 2004)
Some of these results come from one statement about several compounds together.

Target: BIN1-GFP (Arabidopsis thaliana, UniProt O22476)
Design: expressed in transfected cells; host or cells: transgenic Arabidopsis plants (microsomal fractions, or anti-GFP immunoprecipitate from extracts)
Details: read-out: 50% inhibition concentration, IC50, of [3H]-BL binding; membrane fraction of BIN1-GFP plants; not competed

2,3,22,23-O-tetramethylBL [Me-BL] was tested, and the IC50 was > 10 µM.
